{
  "source": "patent US20180000778A1",
  "about": "“SMALL MOLECULE ANTAGONISTS OF DUSP5 AND METHODS OF USE” (THE MEDICAL COLLEGE OF WISCONSIN, INC., priority 2015, published 2018)",
  "key": {"[1]": {"system": "pERK levels in HUVEC cells", "experiment": "pERK levels in HUVEC cells, western blot", "format": "cell-based, Human", "conditions": "HUVECs incubated 2 hours, pERK relative to total ERK; Na3VO4 at 200 μM", "description": "Cell Culture and Western Blots.\nHuman Umbilical Vein Endothelial Cells (HUVECs) were maintained in EBM2 media (Lonza, CC-3156) supplemented with a combined serum and growth factor kit (Lonza, CC-4176). Cells were incubated with the indicated concentrations of drug for 2 h and lysed with RIPA buffer (Sigma, R0278) on ice. Cell lysates were cleared by centrifugation at 16,300×g for 30 min. The resulting supernatants were isolated and protein concentration determined by Lowry assay (DC protein assay, BioRad). 2× laemmli sample buffer was added to equal amounts of protein and separated by SDS-PAGE. The protein gels were transferred to polyvinylidene difluoride (PVDF) and immunoblotted using antibodies to phosphorylated ERK (Cell Signaling, #9106) and total ERK (Cell Signaling, #9102). Bound antibodies were visualized using horseradish peroxidase-linked anti-rabbit IgG, anti-mouse IgG (Cell Signaling Tech., #7074 and #7076) and ECL reagents (Thermo Scientific, 34080) according to the manufacturer's protocol."}, "DUSP5 PD(WT)": {"target": "T1, DUSP5 PD(WT) (Homo sapiens, UniProt Q16690)", "T1 construct": "hexa-histidine (N); made in house; host or cells: E. coli BL21(DE3)", "T1 sequence (Q16690 178-319 limits assumed)": "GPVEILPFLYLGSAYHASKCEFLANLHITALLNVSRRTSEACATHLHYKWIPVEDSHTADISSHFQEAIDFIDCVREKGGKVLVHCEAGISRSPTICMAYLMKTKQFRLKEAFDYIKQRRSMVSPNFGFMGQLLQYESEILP", "experiment": "pNPP phosphatase activity assay with DUSP5 PD(WT)", "format": "biochemical", "conditions": "IC50 measurement in presence and absence of 0.5% Triton", "excerpt": "p-Nitrophenolphosphatase (pNPP) Activity Assay.\nTo measure enzymatic activity of the DUSP5 PD and the inhibitory capacity of selected molecules, an in vitro phosphatase assay was developed based on previous studies (27). In this assay, DUSP5 PD dephosphorylates the substrate p-nitrophenol phosphate (pNPP, Sigma Aldrich), yielding p-nitrophenolate, which absorbs at 405 nm with an extinction coefficient of 18,000 M-1 cm-1.\nThus, an increase in absorbance at 405 nm corresponds to the turnover of pNPP top-nitrophenolate. The assay was initially optimized in 1 mL quartz cuvettes, then was subsequently optimized for and validated in a 96-well plate format. […]\nFor the 96-well plate validation assay, sodium orthovanadate (Sigma Aldrich) was utilized as a positive control for inhibition (Swarup et al., Biochem Biophys Res Commun. 1982; 107:1104-9.) at a final concentration of 10 μM, to completely block activity. All plate assays were performed in standard 96-well clear bottom plates (Thermo Scientific Nunc) with a total assay volume of 200 μL, using a SpectraMax M5 Microplate Reader (Molecular Devices). […] Before a read was taken, the plate was shaken for five seconds. The initial rate for the DUSP5 PD reaction was linear for approximately 90 min; and, the plate was kept in the spectrophotometer at 25° C. for an additional 80 min after the kinetic read. […]"}, "[2]": {"experiment": "Aggregation of compounds (nephelometry; detergent treatment)", "format": "physicochemical", "description": "Nephelometry is a technique for measuring the relative aggregation of particles in solution, based on the light-scattering properties of molecular aggregates (30). To explore the ability of the chemicals studied herein to form aggregates, which can lead to artifactual inhibition effects, nephelometry was performed. Compounds were tested for aggregation in 96-well plates using a buffer containing 100 mM Tris base, 100 mM sodium chloride, and 5 mM magnesium chloride at pH 7.5. Each compound analyzed in these experiments contained concentrations of compound ranging from 10-100 μM, recorded in quadruplet. Each plate was analyzed at two separate gain values of 52 and 72. Data were collected using a BMG NEPHELOstar Plus, equipped with a 635 nm laser.\nTo investigate whether Suramin aggregates in solution, a property often investigated with small molecules, we performed detergent treatment assays. […] NTS and Suramin were compared using DUSP5 PD IC50 assays performed with and without detergent. […] We concluded that Suramin forms aggregates in vitro which can lead to non-specific protein inhibition effects. Beyond any adverse implications for repurposing Suramin in this project, the aggregation phenomenon raises more global concerns regarding the current clinical use of Suramin, and may in part explain some of the known toxicity associated with Suramin (32)."}},
  "note": "Counter-ions that a name gives are not always drawn. For at least one compound, name, drawing or mass did not settle the structure.",
  "data": [
    {"molecule": "O=S(=O)(O)c1cc(S(=O)(=O)O)c2[nH]c3c(S(=O)(=O)O)cc(S(=O)(=O)O)cc3c2c1", "note": "[RR506, Carbazole-1,3,6,8-tetrasulfonic acid, Tetrasodium Salt]", "values": [
      {"measurement": "effect on pERK levels", "setting": "[1]", "value": "do not show biologically useful levels of potency"}
    ]},
    {"molecule": "O=S(=O)(O)c1ccc2c(S(=O)(=O)O)cc(S(=O)(=O)O)cc2c1", "note": "[NTS, naphthalene 1,3,6-trisulfonate]", "values": [
      {"measurement": "effect of detergent on inhibition", "setting": "DUSP5 PD(WT)", "value": "no detergent-effect on inhibition"},
      {"measurement": "aggregation", "setting": "[2]", "value": "does not"}
    ]}
  ]
}
